Measured data: PubChem BioAssay AID1259308 (NCATS, 2017)
Aim: 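Genes whose loss raises luciferase production in HEK293 cells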 (primary screen). Cells: human HEK293 embryonic kidney cells stably expressing firefly luciferase (HEK-CMV-Luc2-Hygro). Reagents: single siRNA against human genes, 0.8 pmol siRNA per well. Time to read-out: 72 h. Read-out: 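Reporter luminescence and viable-cell signal on separate replicate plates, given as percent of non-targeting control and median/MAD z-scores, plus per-cell luciferase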. Scale: total luciferase, z-score and total luciferase, % of control: higher = more reporter protein produced; luciferase per cell, z-score: higher = more reporter output per viable cell; viable cells, % of control: higher = more viable cells. Active means: 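An siRNA counts as active if its total luciferase robust z-score exceeds 3; genes with two or more such siRNAs out of three were retested with fresh siRNAs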. Meaning of the calls: active = raised luciferase; inactive = no rise.
Shown is one part, drawn at random, of about 59,000 reagents. About 1,510 of them (2.6%) were called active. 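Calls use total luciferase alone and ignore viability, so some active siRNAs may act by altering cell number.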 Reagents against one gene are numbered here. Reagent sequences are not shown.

gene symbol	reagent	total luciferase, z-score	total luciferase, % of control	luciferase per cell, z-score	viable cells, % of control	outcome
GUCY1A2	1	-0.53	71.3	-0.719	96.3	inactive
GUCY1A2	2	0.771	97.2	0.311	100	inactive
GUCY1A2	3	1.56	113	1.47	85.6	inactive
B3GNT6	1	-0.0789	80.3	-0.608	105	inactive
B3GNT6	2	-0.47	72.5	-0.838	101	inactive
B3GNT6	3	0.171	85.3	0.0722	93.5	inactive
PCK2	1	-1.91	44	-1.72	77.3	inactive
PCK2	2	-0.242	77.1	-0.268	92.4	inactive
PCK2	3	0.951	101	0.79	91.5	inactive
ZNF653	1	-1.5	52	-1.97	97.5	inactive
ZNF653	2	-0.187	78.2	0.261	81.5	inactive
ZNF653	3	-0.112	79.7	0.244	83.5	inactive
SDHB	1	-1.05	60.9	-0.958	87.6	inactive
SDHB	2	1.36	109	0.658	102	inactive
SDHB	3	0.65	94.8	1.09	79.4	inactive
UTS2	1	0.918	100	0.869	89	inactive
UTS2	2	-0.7	68	0.913	59.7	inactive
UTS2	3	0.443	90.7	0.429	90.5	inactive
SDHC	1	-0.33	75.3	-0.31	91.3	inactive
SDHC	2	3.24	146	2.32	88.8	active
SDHC	3	2.96	141	1.59	103	inactive
ATG2A	1	-2.86	25	-3.02	61.9	inactive
ATG2A	2	0.0274	82.4	-0.108	94.8	inactive
ATG2A	3	-0.268	76.5	-0.802	106	inactive
SIRAL2	1	-0.739	67.2	-0.931	95.9	inactive
SIRAL2	2	0.808	97.9	0.644	92.4	inactive
SIRAL2	3	-0.377	74.4	-0.992	108	inactive

Next part (3 carried over from the part before).
gene symbol	reagent	total luciferase, z-score	total luciferase, % of control	luciferase per cell, z-score	viable cells, % of control	outcome
SIRAL2	1	-0.739	67.2	-0.931	95.9	inactive
SIRAL2	2	0.808	97.9	0.644	92.4	inactive
SIRAL2	3	-0.377	74.4	-0.992	108	inactive
CD163	1	-0.555	70.8	-1.03	104	inactive
CD163	2	-0.0483	80.9	-0.114	93.2	inactive
CD163	3	-0.568	70.6	-0.915	100	inactive
PIGS	1	-0.707	67.8	-0.472	85.8	inactive
PIGS	2	1.04	102	1.65	74.2	inactive
PIGS	3	-1.91	43.8	-1.88	80.4	inactive
ANO9	1	2.12	124	3.35	57.4	inactive
ANO9	2	-1.99	42.3	-3.07	106	inactive
ANO9	3	-0.319	75.5	-0.378	93.2	inactive
PROCA1	1	-1.49	52.2	-1.02	76.3	inactive
PROCA1	2	1.81	118	1.57	87.2	inactive
PROCA1	3	-0.936	63.3	-1.46	104	inactive
MALT1	1	-0.877	64.5	-1.48	106	inactive
MALT1	2	0.966	101	1.18	82.7	inactive
MALT1	3	-0.669	68.6	-1.11	103	inactive
SNPH	1	0.771	97.2	0.609	92.6	inactive
SNPH	2	0.0104	82.1	0.722	75.9	inactive
SNPH	3	0.866	99.1	0.765	90.6	inactive
SLC25A10	1	-0.444	73.1	0.216	77.1	inactive
SLC25A10	2	0.768	97.2	0.463	96.1	inactive
SLC25A10	3	0.856	98.9	0.403	99.4	inactive
ONECUT2	1	1.01	102	1.68	73.1	inactive
ONECUT2	2	2.63	134	2.57	76.1	inactive
ONECUT2	3	-0.0935	80	-0.409	99.6	inactive
ALOX12B	1	-0.481	72.3	-0.566	93.8	inactive
ALOX12B	2	-0.682	68.3	-0.0421	77.2	inactive
ALOX12B	3	-0.0726	80.4	0.556	77.6	inactive
MEX3C	1	-0.105	79.8	-0.179	93.5	inactive
MEX3C	2	-0.879	64.4	-0.854	90.1	inactive
MEX3C	3	-0.382	74.3	-0.802	103	inactive
